Results on 15 compounds are retold here after the supplement of paper PMC12009310.

Structures are written as SMILES. Counter-ions that a name gives are not always drawn. ± gives the standard deviation of the averaged measurements. This is one part of the list. Baselines shift from plate to plate; read single values as rough.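 The cells are a mouse kidney inner medullary collecting duct line, silenced either for the ciliary gene Rpgrip1l or with a non-targeting control siRNA.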

In assay [1] the test system is mIMCD3. As to the kind of experiment: robust z score of cell number vs plate controls; higher = more cells (less cytotoxic). The following applies: 10 µM, 48 h.
Assay [2] deals with mIMCD3. The assay can be described thus: robust z score of cilia incidence (% cells with single cilium) vs plate controls; higher = more ciliated cells. The settings on record: 10 µM; 48 h; siRNA: siScr.
Assay [3] deals with mIMCD3. The assay can be described thus: robust z score of cilia incidence (% cells with single cilium) vs plate controls; higher = more ciliated cells (rescue of cilia loss). The following applies: 10 µM; 48 h; siRNA: siRpgrip1l.

As for `CC[C@@H]1Cn2c(c3nc(-c4ccccc4)nc-3n(C)c2=O)N1`, the “robust z score of cell number” value was 0.102 ± 1.4 in the assay with mIMCD3 [1] (siRNA: siRpgrip1l) and -3.29 ± 6.4 with mIMCD3 [1] (siRNA: siScr). In addition, the “robust z score of cilia incidence” value in the assay on mIMCD3 [2] was 2.43 ± 2.4; in the assay with mIMCD3 [3] it was -9.19 ± 0.87.

In the case of `c1ccc2nc(C3=NCCN3)cnc2c1` [BU 239 hydrochloride], the “robust z score of cell number” value with mIMCD3 [1] (siRNA: siRpgrip1l) is -4.56 ± 2.4; in the assay on mIMCD3 [1] (siRNA: siScr), -2.283 ± 0.012. Further, the results for the “robust z score of cilia incidence” value in the assay with mIMCD3 [2] and with mIMCD3 [3] were 2.45 ± 2.6 and -6.41 ± 0.14, respectively.

On to `N#CC(=C(/N)Sc1ccccc1N)/C(C#N)=C(/N)Sc1ccccc1N`, for which the results for the “robust z score of cell number” value in the assay on mIMCD3 [1] (siRNA: siRpgrip1l) and in the assay with mIMCD3 [1] (siRNA: siScr) were -41.4 ± 55 and -1.81 ± 2.2, respectively. For the same compound, the “robust z score of cilia incidence” value is 0.979 ± 0.92 in the assay on mIMCD3 [2] and -6.8 ± 2.7 with mIMCD3 [3].

`Cc1ccc(C(=O)Nc2ccc(S(=O)(=O)O)c3cc(S(=O)(=O)O)cc(S(=O)(=O)O)c23)cc1NC(=O)c1cccc(NC(=O)Nc2cccc(C(=O)Nc3cc(C(=O)Nc4ccc(S(=O)(=O)O)c5cc(S(=O)(=O)O)cc(S(=O)(=O)O)c45)ccc3C)c2)c1` [Suramin hexasodium salt]: the “robust z score of cell number” value in the assay on mIMCD3 [1] (siRNA: siRpgrip1l) was -35.9 ± 39; in the assay with mIMCD3 [1] (siRNA: siScr) it was -4.29 ± 2.1. For the same compound, the “robust z score of cilia incidence” value in the assay with mIMCD3 [2] is -0.589 ± 2; in the assay with mIMCD3 [3] it was -165 ± 51.

Consider `CN(C(=O)CCCOc1ccc2[nH]c(=O)ccc2c1)C1CCCCC1` [Cilostamide], for which the “robust z score of cell number” value in the assay on mIMCD3 [1] (siRNA: siRpgrip1l) was -3.03 ± 0.27; in the assay on mIMCD3 [1] (siRNA: siScr) it was -4.2 ± 2.1. The figures for the “robust z score of cilia incidence” value with mIMCD3 [2] and in the assay on mIMCD3 [3] were -4.73 ± 2.5 and -10.9 ± 4.4, respectively.

Consider `C=C1/C(=C\C=C2/CCC[C@]3(C)[C@@H]([C@H](C)/C=C/[C@@H](O)C4CC4)CC[C@@H]23)C[C@@H](O)C[C@@H]1O` [Calcipotriol], for which the “robust z score of cell number” value with mIMCD3 [1] (siRNA: siRpgrip1l) was -30.2 ± 28; in the assay on mIMCD3 [1] (siRNA: siScr), -14.4 ± 13. Also, the “robust z score of cilia incidence” value was -20.1 ± 21 with mIMCD3 [2] and -20.9 ± 5.3 in the assay with mIMCD3 [3].

Consider `COc1ccc(NC(=O)c2ccc(-c3ccc(-c4noc(C)n4)cc3C)cc2)cc1OCCN(C)C`, for which the results for the “robust z score of cell number” value with mIMCD3 [1] (siRNA: siRpgrip1l) and with mIMCD3 [1] (siRNA: siScr) were -308 ± 220 and -40.6 ± 9.6, respectively. The “robust z score of cilia incidence” value was -52.6 ± 6.9 with mIMCD3 [2] and -34.6 ± 11 with mIMCD3 [3].

`c1ccc(C(O[C@@H]2CCCN(CCc3ccc4c(c3)OCO4)C2)c2ccccc2)cc1` [Zamifenacin fumarate]: the “robust z score of cell number” value in the assay with mIMCD3 [1] (siRNA: siRpgrip1l) was -28.9 ± 12; in the assay on mIMCD3 [1] (siRNA: siScr), -134 ± 110. The “robust z score of cilia incidence” value in the assay with mIMCD3 [2] was -43.7 ± 7; in the assay on mIMCD3 [3], -42.9 ± 13.

Regarding `C[C@@H]1CN(CCCn2c3ccccc3c3ccccc32)C[C@H](C)N1` [Rimcazole dihydrochloride], the figures for the “robust z score of cell number” value in the assay on mIMCD3 [1] (siRNA: siRpgrip1l) and in the assay with mIMCD3 [1] (siRNA: siScr) were -79 ± 80 and -16.9 ± 4.7, respectively. In addition, the “robust z score of cilia incidence” value with mIMCD3 [2] was -14.6 ± 5.2; in the assay on mIMCD3 [3] it was -394 ± 220.

In the case of `COc1cc(COc2cc(N)c(Cl)cc2C(=O)CCC2CCN(CCNS(C)(=O)=O)CC2)cc(OC)c1`, the “robust z score of cell number” value was -30.06 ± 0.054 in the assay on mIMCD3 [1] (siRNA: siRpgrip1l) and -29.8 ± 15 in the assay on mIMCD3 [1] (siRNA: siScr). Also, the “robust z score of cilia incidence” value in the assay with mIMCD3 [2] was -39 ± 5.1; with mIMCD3 [3], -29.5 ± 4.3.

As to `Cc1ccc(C(=O)Cn2c3c(sc2=N)CCCC3)cc1` [Pifithrin- α hydrobromide], the “robust z score of cell number” value in the assay on mIMCD3 [1] (siRNA: siRpgrip1l) is -57.7 ± 34; in the assay on mIMCD3 [1] (siRNA: siScr) it was -0.452 ± 1.3. The “robust z score of cilia incidence” value in the assay with mIMCD3 [2] was -2.07 ± 2.1; in the assay on mIMCD3 [3] it was -12.4 ± 1.8.

For `CN(N=O)C(=O)N[C@@H](C=O)[C@@H](O)[C@H](O)[C@H](O)CO` [Streptozocin], the “robust z score of cell number” value with mIMCD3 [1] (siRNA: siRpgrip1l) is -19.9 ± 26; with mIMCD3 [1] (siRNA: siScr), -0.217 ± 0.54. In addition, the “robust z score of cilia incidence” value is -0.49 ± 0.66 with mIMCD3 [2] and -129 ± 92 with mIMCD3 [3].

For the compound `CCCC[C@@H](C=O)NC(=O)[C@H](CC(C)C)NC(=O)OCc1ccccc1` [Calpeptin], the figures for the “robust z score of cell number” value in the assay with mIMCD3 [1] (siRNA: siRpgrip1l) and in the assay on mIMCD3 [1] (siRNA: siScr) were 2.1 ± 2.5 and -4.12 ± 5.5, respectively. For the same compound, the “robust z score of cilia incidence” value is 0.752 ± 1.1 with mIMCD3 [2] and -9.23 ± 6.3 with mIMCD3 [3].

Take `O=c1ncccn1[C@@H]1O[C@H](CO)[C@@H](O)[C@H]1O` [Zebularine]: the “robust z score of cell number” value is -11.2 ± 5.2 in the assay on mIMCD3 [1] (siRNA: siRpgrip1l) and -3.98 ± 0.64 in the assay with mIMCD3 [1] (siRNA: siScr). Further, the “robust z score of cilia incidence” value in the assay on mIMCD3 [2] is -0.578 ± 1.5; with mIMCD3 [3], -12.9 ± 9.6.

Regarding `CC1=Nc2ccc(Cl)cc2S(=O)(=O)N1` [Diazoxide], the “robust z score of cell number” value with mIMCD3 [1] (siRNA: siRpgrip1l) was -4.54 ± 1.8; in the assay with mIMCD3 [1] (siRNA: siScr), -1.85 ± 0.38. For the same compound, the entries for the “robust z score of cilia incidence” value in the assay on mIMCD3 [2] and in the assay on mIMCD3 [3] were -3.41 ± 2 and -9.17 ± 3.5, respectively.
